Measurements reported in doi:10.1101/2025.03.06.641895.
These are yes or no findings as the source states them, for the method shown. Binding seen in cells or lysates may run through a third protein. Here binding means that the protein was enriched with, or labelled near, the bait; the list need not be complete.

The chains behind the UniProt entries cited, without tags or fusion partners.
UniProt A2AJ72: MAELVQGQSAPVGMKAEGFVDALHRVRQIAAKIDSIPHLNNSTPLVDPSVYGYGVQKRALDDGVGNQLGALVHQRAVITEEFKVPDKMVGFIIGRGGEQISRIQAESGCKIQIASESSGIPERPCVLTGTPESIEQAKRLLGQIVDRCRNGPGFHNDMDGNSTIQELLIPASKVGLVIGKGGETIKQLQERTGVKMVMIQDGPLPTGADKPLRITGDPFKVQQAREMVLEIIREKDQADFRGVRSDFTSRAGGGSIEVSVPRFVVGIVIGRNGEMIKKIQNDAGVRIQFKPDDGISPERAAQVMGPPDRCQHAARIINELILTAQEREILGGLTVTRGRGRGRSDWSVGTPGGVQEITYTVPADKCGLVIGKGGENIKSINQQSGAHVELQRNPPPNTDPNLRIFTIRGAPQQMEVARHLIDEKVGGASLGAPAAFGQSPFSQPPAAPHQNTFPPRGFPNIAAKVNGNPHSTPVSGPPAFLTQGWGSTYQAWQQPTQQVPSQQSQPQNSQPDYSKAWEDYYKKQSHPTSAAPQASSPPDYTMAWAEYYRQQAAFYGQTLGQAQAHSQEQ
UniProt Q9D0R8: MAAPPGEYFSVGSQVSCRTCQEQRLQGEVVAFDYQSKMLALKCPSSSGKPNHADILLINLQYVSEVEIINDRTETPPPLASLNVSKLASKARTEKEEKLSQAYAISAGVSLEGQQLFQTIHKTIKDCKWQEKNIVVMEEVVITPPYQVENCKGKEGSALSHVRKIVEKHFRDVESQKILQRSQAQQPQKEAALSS
UniProt Q6ZQ58: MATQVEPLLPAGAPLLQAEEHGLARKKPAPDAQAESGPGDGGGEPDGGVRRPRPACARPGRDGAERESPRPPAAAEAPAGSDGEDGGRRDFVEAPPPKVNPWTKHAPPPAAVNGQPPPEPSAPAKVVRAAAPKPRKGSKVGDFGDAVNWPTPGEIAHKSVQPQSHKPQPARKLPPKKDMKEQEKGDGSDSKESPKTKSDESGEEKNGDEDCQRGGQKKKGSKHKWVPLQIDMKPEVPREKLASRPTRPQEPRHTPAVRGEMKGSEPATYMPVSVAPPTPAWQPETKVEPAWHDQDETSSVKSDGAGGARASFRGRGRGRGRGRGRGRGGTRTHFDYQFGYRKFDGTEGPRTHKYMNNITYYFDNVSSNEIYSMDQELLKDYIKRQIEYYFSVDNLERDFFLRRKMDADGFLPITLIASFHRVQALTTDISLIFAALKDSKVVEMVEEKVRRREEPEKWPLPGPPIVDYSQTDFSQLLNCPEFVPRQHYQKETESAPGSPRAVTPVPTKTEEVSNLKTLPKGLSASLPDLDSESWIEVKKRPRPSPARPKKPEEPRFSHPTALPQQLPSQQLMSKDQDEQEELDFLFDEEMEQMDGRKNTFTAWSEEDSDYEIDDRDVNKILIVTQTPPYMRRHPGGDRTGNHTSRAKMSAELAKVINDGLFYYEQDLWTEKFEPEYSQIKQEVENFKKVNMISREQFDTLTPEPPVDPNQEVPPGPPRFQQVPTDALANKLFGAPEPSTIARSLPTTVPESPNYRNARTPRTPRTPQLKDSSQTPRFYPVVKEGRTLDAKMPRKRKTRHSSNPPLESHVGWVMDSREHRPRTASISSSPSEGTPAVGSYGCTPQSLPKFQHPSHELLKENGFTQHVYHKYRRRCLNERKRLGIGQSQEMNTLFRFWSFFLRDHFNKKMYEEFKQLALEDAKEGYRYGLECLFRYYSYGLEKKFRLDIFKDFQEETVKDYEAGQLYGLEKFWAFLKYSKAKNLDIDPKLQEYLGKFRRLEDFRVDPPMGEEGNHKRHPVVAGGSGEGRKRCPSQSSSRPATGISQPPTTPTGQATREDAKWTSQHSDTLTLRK

T1: Ataxin-2-like (ATXN2L) (mouse (endogenous in MEF)) (UniProt Q7TQH0)
T1 sequence: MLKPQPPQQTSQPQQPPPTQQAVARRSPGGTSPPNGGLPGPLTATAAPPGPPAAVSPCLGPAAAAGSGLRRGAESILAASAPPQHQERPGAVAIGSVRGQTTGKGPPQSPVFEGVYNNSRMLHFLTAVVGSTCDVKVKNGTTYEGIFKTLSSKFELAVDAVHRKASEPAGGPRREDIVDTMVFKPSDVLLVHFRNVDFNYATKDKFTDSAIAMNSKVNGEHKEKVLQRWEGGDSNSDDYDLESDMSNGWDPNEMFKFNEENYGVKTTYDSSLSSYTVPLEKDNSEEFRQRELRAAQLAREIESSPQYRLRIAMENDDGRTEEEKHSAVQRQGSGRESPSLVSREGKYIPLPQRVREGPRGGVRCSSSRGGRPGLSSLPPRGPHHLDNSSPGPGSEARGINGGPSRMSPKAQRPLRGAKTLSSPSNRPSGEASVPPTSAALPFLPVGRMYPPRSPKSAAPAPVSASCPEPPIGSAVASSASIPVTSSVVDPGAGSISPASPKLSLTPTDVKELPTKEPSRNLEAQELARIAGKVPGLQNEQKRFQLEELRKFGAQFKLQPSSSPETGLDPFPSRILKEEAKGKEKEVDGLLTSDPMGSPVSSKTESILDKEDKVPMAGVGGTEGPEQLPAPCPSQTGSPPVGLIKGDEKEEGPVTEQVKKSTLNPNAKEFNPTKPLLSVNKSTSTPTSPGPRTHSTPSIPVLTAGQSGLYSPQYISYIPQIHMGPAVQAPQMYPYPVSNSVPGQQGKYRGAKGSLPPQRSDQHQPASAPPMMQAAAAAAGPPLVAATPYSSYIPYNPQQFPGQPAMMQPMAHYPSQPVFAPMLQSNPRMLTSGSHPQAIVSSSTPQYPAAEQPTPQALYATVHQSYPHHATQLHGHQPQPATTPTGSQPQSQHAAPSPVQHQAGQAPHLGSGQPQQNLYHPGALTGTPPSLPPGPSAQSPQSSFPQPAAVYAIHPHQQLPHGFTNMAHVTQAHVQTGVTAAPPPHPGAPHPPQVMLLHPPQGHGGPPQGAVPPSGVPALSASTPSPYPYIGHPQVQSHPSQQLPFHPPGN

B1: MBNL2 (protein, UniProt Q8C181 1-373)
chain: MALNVAPVRDTKWLTLEVCRQYQRGTCSRSDEECKFAHPPKSCQVENGRVIACFDSLKGRCSRENCKYLHPPTHLKTQLEINGRNNLIQQKTAAAMLAQQMQFMFPGTPLHPVPTFPVGPTIGTNAAISFAPYLAPVTPGVGLVPTEVLPTTPVIVPGSPPVTVPGSTATQKLLRTDKLEVCREFQRGNCARGETDCRFAHPADSTMIDTNDNTVTVCMDYIKGRCMREKCKYFHPPAHLQAKIKAAQHQANQAAVAAQAAAAAATVMTQSTAKALKRPLEATVDLAFPPGALHPLPKRQALEKSNGASTVFNPSVLHYQQALTSAQLQQHTAFIPTVPMMHSATSATVSAATTPATSVPFAATATANQIILK
B2: ZMAT3 (protein, UniProt O54836 1-290)
chain: MILLQQVWLPLPNRPSTSPPMSVAARSTRTLQLPPQKAFGQEASLPLAGEEDLAKRGEPDSALEELCKPLFCKLCNVTLNSAQQAQAHYQGKNHGKKLRNYYAANSCPPPARVSSVVAEPVATPLVPVPPQVGSCKPGGRVILATENDYCKLCDASFSSPAVAQAHYQGKNHAKRLRLAEAQSHSFSDSAEAGQRRTRKEGSEFKMVATRRNMNPVQSNSGPYFNARSRQRIPRDLAMCVTPSGQFYCSMCNVGAGEEVEFRQHLESKQHKSKVSEQRYRSEMENLGYVQ
B3: SFPQ (protein, UniProt Q8VIJ6 1-699)
chain: MSRDRFRSRGGGGGGFHRRGGGGGRGGLHDFRSPPPGMGLNQNRGPMGPGPGGPKPPLPPPPPHQQQQQPPPQQPPPQQPPPHQQPPPHQPPHQQPPPPPQESKPVVPQGPGSAPGVSSAPPPAVSAPPANPPTTGAPPGPGPTPTPPPAVPSTAPGPPPPSTPSSGVSTTPPQTGGPPPPPAGGAGPGPKPGPGPGGPKGGKMPGGPKPGGGPGMGAPGGHPKPPHRGGGEPRGGRQHHAPYHQQHHQGPPPGGPGPRTEEKISDSEGFKANLSLLRRPGEKTYTQRCRLFVGNLPADITEDEFKRLFAKYGEPGEVFINKGKGFGFIKLESRALAEIAKAELDDTPMRGRQLRVRFATHAAALSVRNLSPYVSNELLEEAFSQFGPIERAVVIVDDRGRSTGKGIVEFASKPAARKAFERCSEGVFLLTTTPRPVIVEPLEQLDDEDGLPEKLAQKNPMYQKERETPPRFAQHGTFEYEYSQRWKSLDEMEKQQREQVEKNMKDAKDKLESEMEDAYHEHQANLLRQDLMRRQEELRRMEELHSQEMQKRKEMQLRQEEERRRREEEMMIRQREMEEQMRRQREESYSRMGYMDPRERDMRMGGGGTMNMGDPYGSGGQKFPPLGGGGGIGYEANPGVPPATMSGSMMGSDMRTERFGQGGAGPVGGQGPRGMGPGTPAGYGRGREEYEGPNKKPRF
B4: HNRNPDL (protein, UniProt Q9Z130 1-301)
chain: MEDMNEYSNIEEFAEGSKINASKNQQDDGKMFIGGLSWDTSKKDLTEYLSRFGEVVDCTIKTDPVTGRSRGFGFVLFKDAASVDKVLELKEHKLDGKLIDPKRAKALKGKEPPKKVFVGGLSPDTSEEQIKEYFGAFGEIENIELPMDTKTNERRGFCFITYTDEEPVKKLLESRYHQIGSGKCEIKVAQPKEVYRQQQQQQKGGRGAAAGGRGGARGRGRGQGQNWNQGFNNYYDQGYGNYNSAYGGDQNYSGYGGYDYTGYNYGNYGYGQGYADYSGQQSTYGKASRGGGNHQNNYQPY
B5: Ataxin-2 (ATXN2) (protein, UniProt O70305 1-1285)
chain: MRSSTAAVQRPAAGDPEPRRPAGWAARRSLPRTARRGGRGGAVAYPSAGPPPRGPGAPPRGPRSPPCASDCFGSNGHGASRPGSRRLLGVCGPPRPFVVVLLALAPAATPARACPPGVRASPPRSGVSSSARPAPGCPRPACEPVYGPLTMSLKPQPQPPAPATGRKPGGGLLSSPGAAPASAAVTSASVVPAPAAPVASSSAAAGGGRPGLGRGRNSSKGLPQPTISFDGIYANVRMVHILTSVVGSKCEVQVKNGGIYEGVFKTYSPKCDLVLDAAHEKSTESSSGPKREEIMESVLFKCSDFVVVQFKDTDSSYARRDAFTDSALSAKVNGEHKEKDLEPWDAGELTASEELELENDVSNGWDPNDMFRYNEENYGVVSTYDSSLSSYTVPLERDNSEEFLKREARANQLAEEIESSAQYKARVALENDDRSEEEKYTAVQRNCSDREGHGPNTRDNKYIPPGQRNREVLSWGSGRQSSPRMGQPGPGSMPSRAASHTSDFNPNAGSDQRVVNGGVPWPSPCPSHSSRPPSRYQSGPNSLPPRAATHTRPPSRPPSRPSRPPSHPSAHGSPAPVSTMPKRMSSEGPPRMSPKAQRHPRNHRVSAGRGSMSSGLEFVSHNPPSEAAAPPVARTSPAGGTWSSVVSGVPRLSPKTHRPRSPRQSSIGNSPSGPVLASPQAGIIPAEAVSMPVPAASPTPASPASNRALTPSIEAKDSRLQDQRQNSPAGSKENVKASETSPSFSKADNKGMSPVVSEHRKQIDDLKKFKNDFRLQPSSTSESMDQLLSKNREGEKSRDLIKDKTEASAKDSFIDSSSSSSNCTSGSSKTNSPSISPSMLSNAEHKRGPEVTSQGVQTSSPACKQEKDDREEKKDTTEQVRKSTLNPNAKEFNPRSFSQPKPSTTPTSPRPQAQPSPSMVGHQQPAPVYTQPVCFAPNMMYPVPVSPGVQPLYPIPMTPMPVNQAKTYRAGKVPNMPQQRQDQHHQSTMMHPASAAGPPIVATPPAYSTQYVAYSPQQFPNQPLVQHVPHYQSQHPHVYSPVIQGNARMMAPPAHAQPGLVSSSAAQFGAHEQTHAMYACPKLPYNKETSPSFYFAISTGSLAQQYAHPNAALHPHTPHPQPSATPTGQQQSQHGGSHPAPSPVQHHQHQAAQALHLASPQQQSAIYHAGLAPTPPSMTPASNTQSPQSSFPAAQQTVFTIHPSHVQPAYTTPPHMAHVPQAHVQSGMVPSHPTAHAPMMLMTTQPPGPKAALAQSALQPIPVSTTAHFPYMTHPSVQAHHQQQL
B6: nuclear poly(A) binding protein PABPN1 (protein, UniProt Q8CCS6 1-302)
chain: MAAAAAAAAAAGAAGGRGSGPGRRRHLVPGAGGEAGEGDPGGAGDYGNGLESEELEPGELLPEPEPEEEPPRPRAPPGAPGPGPGSGAPGSQEEEEEPGLVEADPGDGAIEDPELEAIKARVREMEEEAEKLKELQNEVEKQMNMSPPPGNAGPVIMSLEEKMEADARSIYVGNVDYGATAEELEAHFHGCGSVNRVTILCDKFSGHPKGFAYIEFSDKESVRTSLALDESLFRGRQIKVIPKRTNRPGISTTDRGFPRSRYRARTTNYNSSRSRFYSGFNSRPRGRIYRGRARATSWYSPY
B7: G3BP2 (protein, UniProt P97379 1-482)
chain: MVMEKPSPLLVGREFVRQYYTLLNKAPEYLHRFYGRNSSYVHGGVDASGKPQEAVYGQNDIHHKVLSLNFSECHTKIRHVDAHATLSDGVVVQVMGLLSNSGQPERKFMQTFVLAPEGSVPNKFYVHNDMFRYEDEVFGDSEPELDEESEDEVEEEQEDRQPSPEPVQENANSAYYDAHPVTNGIEEPLEESSHEPEPEPESETKTEELKPQVEEKHLEELEEKSATPPPAEPASLPQEPPKAFSWASVTSKNLPPSGTVSSSGIPPHVKAPVSQPRVDAKPEVQSQPPRVREQRPRERPGFPPRGPRPGRGDMEQNDSDNRRIIRYPDSHQLFVGNLPHDIDENELKEFFMSFGNVVELRINTKGVGGKLPNFGFVVFDDSEPVQRILIAKPIMFRGEVRLNVEEKKTRAARERETRGGGDDRRDIRRNDRGPGGPRGIVGGGMMRDRDGRGPPPRGGMTQKLGSGRGTGQMEGRFTGQRR
B8: LMOD1 (protein, UniProt Q8BVA4 1-595)
chain: MSKVAKYRRQVSEDPDIDSLLSTLSPEEMEELEKELDVVDPDGSIPVGLRQRNQTDKQPSGSFNREAMLNFCEKESKKLIQREMSVDESKQVGRKTDAKNGEEKDSDASRKAPGPRQDSDLGKEPKKGVLKKSFSRDREEADGRGGEKPKEEKVIRGIDKGRVRAAVDRKESGKDGREERAAAARKEEEKTGSVKNAGLSRDKDKKKEEVKEPSKKEEVKLTAESRNTVGRREDGRLKESSKENKKPEDEGIGSGGRDWRKEDEKVKKEENQPDKEVREESKTKAPEKQAPSCPNKPSDGQARAEEEAAPSIFDEPLEKVKNNDPEMTEVNVNNSDCITNEILVRFTEALEFNTVVKVFALANTRADDHVAFAIAIMLKANKTITSLNLDSNHITGKGILAIFRALLQNNTLTELRFHNQRHICGVKTEMEIAKLLKENTTLLKLGYHFELAGPRMTVTNLLSRNMDKQRQKRLQEQKQAQEASGEKKDRLEVPKVGALAKGSPKPSPQPSPKPAPKNSPKKAGVPAAPPPPPPPLAPPLIMENLKNSLSPATQRKMGDKVLPAQEKNSRDQLLAAIRSSNLKQLKKVEVPKLLQ

biological target: T1, Ataxin-2-like (ATXN2L) (mouse (endogenous in MEF)); experiment: affinity purification with mass spectrometry

| Molecule | binding |
| --- | --- |
| SYNE2 (from UniProt Q6ZWQ0 1-6874) | binds |
| FUBP3 (from UniProt A2AJ72 1-569) | binds |
| HNRNPK (from UniProt P61979 1-463) | binds |
| LSM12 (from UniProt Q9D0R8 1-195) | binds |
| LARP1 (La Ribonucleoprotein 1 Translational Regulator) (from UniProt Q6ZQ58 1-1072) | binds |
| B1 | binds |
| B2 | binds |
| B3 | binds |
| B4 | binds |
| B5 | binds |
| B6 | binds |
| B7 | binds |
| B8 | binds |
